Laboratory results published in patent US20080241130A1.
No constants are given. Whether binding was seen depends on the method and setting. Some results given as binding are weak or reduced against the parent protein; the word gives no strength.

Legend:
[1] = target: human IL-17R.Fc (human); assay: indirect sandwich ELISA: IL-17R.Fc captured on goat anti-human IgG-Fc, biotinylated cytokine titrated, Poly-HRP streptavidin
[2] = target: human IL-17RC.Fc (human); assay: indirect sandwich ELISA: IL-17RC.Fc captured on goat anti-human IgG-Fc, biotinylated cytokine titrated, Poly-HRP streptavidin
[3] = target: human IL-17R.Fc (human); assay: indirect sandwich ELISA; receptor.Fc captured on goat anti-human IgG-Fc, biotinylated cytokine titrated
[4] = target: human IL-17RC.Fc (human); assay: as above
[5] = target: human IL-17R.Fc (human); assay: SPR (Biacore 2000), receptor.Fc amine-coupled, cytokine injected
[6] = target: human IL-17RC.Fc (human); assay: as above

binding [1]: binds | binding [2]: binds | binding [3]: binds | binding [4]: binds | binding [5]: binds | binding [6]: binds
B1: human IL-17F (ligand)
chain: RKIPKVGHTFFQKPESCPPVPGGSMKLDIGIINENQRVSMSRNIESRSTSPWNYTVTWDPNRYPSEVVQAQCRNLGCINAQGKEDISMNSVPIQQETLVVRRKHQGCSVSFQLEKVLVTVGCTCVTPVIHHVQ
modifications: biotinylated in the ELISA (FluoReporter Mini-biotin-XX kit); sites not stated
